The whole screen tested about 310,000 compounds, of which about 17,000 (5.5%) were called active. The shares of active, inactive and inconclusive entries below differ from those in the screen. Calls come from the whole dose curve; as a rule, active = well fitted inhibition curve with a large enough effect; inconclusive = small, poorly fitted or top-dose-only effect, or effect the other way; inactive = no such curve, though single readings can be large or run the other way. Potencies of inconclusive entries are doubtful fits and often do not repeat.
Target: Nuclear receptor ROR-gamma (Mus musculus) (UniProt P51450)
Experiment: qHTS for inhibitors of ROR gamma transcriptional activity; note: nearly all actives have a fitted effect of over 60% in size
Settings: Drosophila S2 Gal4-RORgamma UAS-luciferase reporter, 20 h; series mostly up to 53.6 µM
How it was run: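 ROR gamma transcriptional activity was tracked as Gal4-UAS luciferase output in stably transfected Drosophila Schneider cells, with compound added 1 hr before 700 uM copper sulfate induction and a 20 hr ambient-temperature incubation.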
Potency is the fitted concentration of half-maximal effect.

Sequences of proteins named here, by UniProt entry; tags and fusion partners are left off. A change or cut given only in a name is not applied to a line headed by its entry.
UniProt P51450: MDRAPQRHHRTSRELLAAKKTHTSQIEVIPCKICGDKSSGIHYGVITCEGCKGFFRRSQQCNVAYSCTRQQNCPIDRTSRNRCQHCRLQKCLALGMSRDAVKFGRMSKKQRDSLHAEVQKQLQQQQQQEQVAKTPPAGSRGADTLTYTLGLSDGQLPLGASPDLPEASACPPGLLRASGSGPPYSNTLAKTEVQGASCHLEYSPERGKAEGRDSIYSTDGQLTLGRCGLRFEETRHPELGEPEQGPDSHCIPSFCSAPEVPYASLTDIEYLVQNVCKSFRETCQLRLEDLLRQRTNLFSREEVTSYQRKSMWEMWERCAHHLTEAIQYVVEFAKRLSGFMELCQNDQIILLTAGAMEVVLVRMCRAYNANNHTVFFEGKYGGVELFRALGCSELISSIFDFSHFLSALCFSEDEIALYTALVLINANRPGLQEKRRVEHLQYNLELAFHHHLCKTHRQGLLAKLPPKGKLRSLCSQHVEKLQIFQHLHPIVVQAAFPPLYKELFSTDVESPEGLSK

| SMILES | Potency |
| --- | --- |
| COc1ccc(CCNC(=O)c2cc(S(=O)(=O)N3CCOCC3)cn2C)cc1OC | inactive |
| CCn1nc(C)c(C(=O)Nc2cc(Oc3cc(C)cc(C)c3)cc([N+](=O)[O-])c2)c1C | inconclusive: 8.91 µM [activator, partial curve] |
| Cc1ccc(NC(=O)C2CCN(S(=O)(=O)c3ccc(N4CCCC4=O)cc3)CC2)cc1Cl | inconclusive: 35.5 µM [inhibitor, single point] |
| CNc1cc(CSC)nc(SCc2ccc(Cl)c(Cl)c2)n1 | inconclusive: 35.5 µM [inhibitor, single point] |
| C/C(Cn1nnc([N+](=O)[O-])n1)=N\NC(=O)c1ccccc1O | active: 5.62 µM |
| CC1CCCC2(C1)NC(=S)N(c1ccccc1)N2 (stereo not drawn) | active: 12.6 µM |
| CC(=O)c1noc(C)c1C(=O)Nc1nccs1 | inconclusive: 11.2 µM [inhibitor, partial curve] |
| CCCCCC[C@@H]([C@@H](C)O)n1cnc2c(N)ncnc21 | inactive |
| Cc1cc(O)c(-c2cc(O)c(C)cc2O)cc1O | active: 7.08 µM |
| O=C1c2ccccc2-c2nnc(-c3ccc(O)cc3)cc21 | inconclusive: 14.1 µM [inhibitor, single point] |
| COc1ccc(S(=O)(=O)NC(CC(=O)NCc2ccccc2OC)c2ccco2)cc1 (stereo not drawn) | inconclusive: 5.01 µM [activator, partial curve] |
| COc1cccc(Cn2c(=O)c(-c3cccs3)nc3cnc(N4CCNCC4)nc32)c1 | inconclusive: 22.4 µM [inhibitor, single point] |
| Cc1ccc(C(=O)NNC(=O)CSc2nc(N)cc(N)n2)cc1 | inactive |
| O=C(O)COc1ccccc1/C=N/NC(=O)CSc1nnc(SCc2ccccc2)s1 | inactive |
| CC(=O)C(Sc1ncnc2c1nnn2-c1ccc(F)cc1)C(=O)N(C)C (stereo not drawn) | inactive |
| O=C(Cc1cccs1)NNC(=S)NCc1ccco1 | active: 14.1 µM |
| COc1cc(OC)cc(C(=O)N2CCN(C(=O)c3ccc(OC)c(OC)c3)CC2)c1 | inactive |
| COC(=O)c1ccc(NC(=O)CN(c2ccc3c(c2)OCO3)S(C)(=O)=O)cc1 | inconclusive: 5.62 µM [activator, single point] |
| Clc1ccc(-c2nnc(CSc3nnc(-c4cccs4)n3Cc3ccccc3)o2)cc1 | inconclusive: 35.5 µM [inhibitor, single point] |
| O=C(N/N=C/c1c[nH]c2ccc(Br)cc12)c1ccncc1 | active: 12.6 µM |
| CC1CC(C)(C)NC(=S)N1CC(=O)NCc1ccccc1Cl (stereo not drawn) | inconclusive: 22.4 µM [inhibitor, single point] |
| Cc1nn(C)c(Nc2ccc(Br)cc2)c1Br | inconclusive: 25.1 µM [inhibitor, single point] |
| CC1(C)COC(c2cccn2Cc2ccc(F)cc2Cl)=N1 | inconclusive: 15.8 µM [inhibitor, single point] |
| Cc1onc(C(=O)N2CCN(c3ccccc3F)CC2)c1-c1ccccc1Cl | inconclusive: 35.5 µM [activator, single point] |

| SMILES | Potency |
| --- | --- |
| Cn1c(=O)c([N+](=O)[O-])c(-n2ccnc2)c2ccccc21 | inconclusive: 35.5 µM [inhibitor, single point] |
| COc1cc(NC(=S)NC2CC(C)(C)NC(C)(C)C2)c(OC)cc1Cl | inactive |
| Cc1ccc(NC(=O)C2CC(=O)N/C(=N/NC(=O)c3ccc(C)cc3)S2)cc1 (stereo not drawn) | active: 2.24 µM |
| CCN(CC)CCN(C(=O)c1c(F)cccc1F)c1nc2cc(C)cc(C)c2s1 | inconclusive: 17.8 µM [inhibitor, single point] |
| COc1cc2c(cc1NC(=O)CN1CCN(S(=O)(=O)c3ccccc3F)CC1)oc1ccccc12 | inactive |
| O=C(Cc1csc(N2CCOCC2)n1)N/N=C/c1ccc(Cl)cc1Cl | inconclusive: 14.1 µM [activator, single point] |
| CCn1c(-c2csc3c2CCC(C)C3)n[nH]c1=S (stereo not drawn) | active: 2 µM |
| CC1C(=O)OC2C(O)C34C5CC(C(C)(C)C)C36C(OC(=O)C6O)OC4(C(=O)O5)C12O (stereo not drawn) | inactive |
| O=S(=O)(c1cc(-c2nnc(-c3ccc(Br)cc3)o2)ccc1Br)N1CCCCCC1 | inactive |
| Cc1nn(CCC#N)c(N)c1C1(O)C(=O)Nc2c(Cl)cc(Cl)cc21 (stereo not drawn) | inconclusive: 12.6 µM [inhibitor, partial curve] |
| CCOc1ccc(CNC(=O)CCCn2ccc3cc(S(=O)(=O)N4CCCC4)ccc32)cc1 | inconclusive: 17.8 µM [activator, single point] |
| CCOC(=O)C1=C(C)N(c2ccccc2)C(=O)/C1=C\c1ccco1 | inconclusive: 1 µM [activator, partial curve] |
| COc1ccc(C/C(C)=N/Nc2nc(C)cc(=O)[nH]2)cc1 | inconclusive: 20 µM [inhibitor, single point] |
| O=C(N/N=C/C=C/c1ccccc1)c1cc(C2CC2)[nH]n1 | inconclusive: 12.6 µM [inhibitor, single point] |
| O=C(/C=C/c1ccc(Br)cc1)NC(=S)N1CCOCC1 | active: 0.708 µM |
| CCN1C(=O)[C@H]2[C@@H](c3ccc(OC)cc3)N3C(=O)CN(CCOC)C(=O)[C@@]3(Cc3ccccc3)[C@H]2C1=O | inactive |
| C/C(=N\O)c1cc(Cl)ccc1O | inconclusive: 22.4 µM [inhibitor, single point] |
| COc1ccc(C)cc1NC(=S)N1CCN(c2ccccn2)CC1 | inconclusive: 17.8 µM [inhibitor, single point] |
| COc1cccc(/C=N/NC(=O)c2cnccn2)c1O | active: 2.24 µM |
| Cc1ccc(C(=O)Nc2nc(-c3ccccc3)c(-c3ccccc3)o2)cc1 | active: 5.01 µM |
| Cc1cc(C(=O)COC(=O)C2=NNC(=O)CC2)c(C)n1-c1ccccc1 | inactive |
| CCCCNC(=S)N1CCC(Cc2ccccc2)CC1 | inconclusive: 15.8 µM [inhibitor, single point] |
| COc1ccc(C2C=C3CNS(=O)(=O)C3CC2OC(=O)c2ccc(Cl)cc2)cc1 (stereo not drawn) | inactive |
| Cc1cc(C)c(C#N)c(Nc2ccc3c(c2)OCCO3)n1 | inactive |

Quoted from above for reference:

| SMILES | Potency |
| --- | --- |
| Cc1onc(C(=O)N2CCN(c3ccccc3F)CC2)c1-c1ccccc1Cl | inconclusive: 35.5 µM [activator, single point] |
| Cn1c(=O)c([N+](=O)[O-])c(-n2ccnc2)c2ccccc21 | inconclusive: 35.5 µM [inhibitor, single point] |
| COc1cc(NC(=S)NC2CC(C)(C)NC(C)(C)C2)c(OC)cc1Cl | inactive |

Source: PubChem BioAssay AID2551 (National Center for Advancing Translational Sciences (NCATS), 2010)
